In patent US7429679B2, “Sulphonic acid salt of sibutramine” (CJ Corporation, priority 2005, dated 2008):
Counter-ions that a name gives are not always drawn. Some entries share one result that the patent states for a list of compounds.

Test: Evaluation of solubility in distilled water and aqueous solutions having various pH values
Type: physicochemical
Details: distilled water (DW) and buffer solutions at various pH values

Row | Structure (SMILES) | solubility against the solubility sufficient for preparing pharmaceutical formulations such as capsules
1 | CC(C)CC(N(C)C)C1(c2ccc(Cl)cc2)CCC1 (centres unmarked) [Tosylate, sibutramine tosylate] | > 3000 µg/mL
2 | CC(C)CC(N(C)C)C1(c2ccc(Cl)cc2)CCC1 (centres unmarked) [Edisylate, sibutramine edisylate] | > 3000 µg/mL
